PubChem BioAssay AID504467 (National Center for Advancing Translational Sciences (NCATS), 2011)
Screen size: about 330,000 compounds; about 7,700 (2.3%) were called active. Inconclusive results, whose numbers are uncertain, are shown with a selection of clear calls. Calls follow the shape of the dose curve; as a rule, active = well fitted inhibition curve with a large enough effect; inconclusive = small, poorly fitted or top-dose-only effect, or effect the other way; inactive = flat fitted curve, though single readings scatter. A potency beside an inconclusive call is a rough fit, not a confirmed value.

Assay: qHTS screen for small molecules that inhibit ELG1-dependent DNA repair in human embryonic kidney (HEK293T) cells expressing luciferase-tagged ELG1; also: nearly all actives have a fitted effect of over 55% in size
Settings: HEK293T ELG1-luciferase reporter, luminescence, 16 h, DNA damage induced by 5-fluorouridine; series mostly up to 46.1 µM
How it was run: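 DMSO vehicle served as the neutral condition. Each well held 2,000 cells given 5-fluorouridine plus compound; after 16 hr at 37 °C/5% CO2, ONE-Glo was added and luciferase measured 30 min later.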
Potency is read from the fitted curve at half-maximal effect.

| Compound | Potency |
| --- | --- |
| COc1cc(C(=O)Nc2ccc3ccccc3c2)cc(OC)c1OC | inactive |
| CCOC(=O)N1CCc2c(sc3c2c(=O)n(Cc2ccccc2)c(=O)n3CC(=O)NCCOC)C1 | inactive |
| O=C(Nc1sc2c(c1C(=O)O)CCCC2)C(=O)N1CCOCC1 | inconclusive: 16.4 µM [activator, single point] |
| O=C(CCNC(=O)OCc1ccccc1)NC1CCCCC1 | inactive |
| CC(=O)O[C@]1(C(C)=O)CC[C@H]2[C@@H]3C=C(Cl)C4=CC(=O)CC[C@]4(C)[C@H]3CC[C@@]21C | inconclusive: 29.1 µM [inhibitor, single point] |
| COc1ccc2cc3c(N)nn(C(=O)c4ccccc4Cl)c3nc2c1 | active: 0.651 µM |
| COc1ccc2[nH]c(=O)c(C(c3nnnn3C(C)(C)C)N(Cc3ccco3)CC3CCCO3)cc2c1 (stereo unspecified) | inactive |
| Cc1cc(C)cc(NC(=S)NCC2CCCO2)c1 (stereo unspecified) | inactive |
| N#Cc1ccsc1NC(=O)COc1ccc(-c2nnco2)cc1 | inconclusive: 14.6 µM [activator, partial curve] |
| CCCCN1C(=O)C(=O)N(CC(=O)c2cc(C)n(C3CC3)c2C)C1=O | inconclusive: 29.1 µM [activator, single point] |
| COC(=O)c1ccc(NC(=O)c2ccc3c(c2)OCO3)cc1 | inconclusive: 5.8 µM [activator, full curve] |
| COc1ccc(-c2sc3ccccc3c2-c2ccc(OCCN(C)C)cc2)cc1 | inconclusive: 18.3 µM [inhibitor, single point] |
| CCn1cc(C(=O)NCc2ccccn2)c(=O)c2cc(S(=O)(=O)N3CCCCC3)ccc21 | inconclusive: 14.6 µM [inhibitor, partial curve, poor fit] |
| CC1CC(=O)N(CC(=O)Nc2ccc3c(c2)OCO3)c2ccccc2S1 (stereo unspecified) | inactive |
| CC(=O)Oc1ccc(-c2cccc(C(=O)NCCO)c2)cc1 | inconclusive: 16.4 µM [activator, single point] |
| COc1ccc(C2=NOC(C(=O)N3CCN(C(=O)c4ccco4)CC3)C2)cc1OC (stereo unspecified) | inconclusive: 32.6 µM [activator, partial curve, poor fit] |
| CCn1c(SCCC(C)C)nnc1-c1c[nH]c2ccccc12 | inconclusive: 20.6 µM [inhibitor, single point] |
| O=C(COC(=O)c1ccc2ncsc2c1)NCc1ccccc1Cl | inconclusive: 7.3 µM [activator, partial curve, poor fit] |
| COc1ccc(NC(=O)CN(C)C(=O)CSc2nc3ccccc3s2)cc1 | inconclusive: 5.62 µM [inhibitor, single point] |
| O=C(O)c1ccccc1SCc1cn2cc(Cl)ccc2n1 | inconclusive: 29.1 µM [activator, single point] |
| Cc1ccnc(NC(=O)C2CCN(S(=O)(=O)c3cccc4nonc34)CC2)c1 | inconclusive: 25.9 µM [inhibitor, single point] |
| Cc1cc(C)n2c(Br)c(CSc3nc4ccccc4o3)nc2n1 | inconclusive: 8.2 µM [activator, single point] |
| CN1C(=O)/C(=C\c2ccco2)N=C1c1ccc(Cl)cc1Cl | inactive |
| Cc1occc1-c1nnc(SCC(=O)Nc2nc(-c3ccccc3)cs2)o1 | inconclusive: 20.6 µM [activator, single point] |

Look-ups from the list:
Potency, CCn1cc(C(=O)NCc2ccccn2)c(=O)c2cc(S(=O)(=O)N3CCCCC3)ccc21 reads inconclusive: 14.6 µM [inhibitor, partial curve, poor fit]
Potency, COc1ccc(-c2sc3ccccc3c2-c2ccc(OCCN(C)C)cc2)cc1 reads inconclusive: 18.3 µM [inhibitor, single point]

Quoted at random: 2 records from the list

| Compound | Potency |
| --- | --- |
| COc1ccc(C2=NOC(C(=O)N3CCN(C(=O)c4ccco4)CC3)C2)cc1OC (stereo unspecified) | inconclusive: 32.6 µM [activator, partial curve, poor fit] |
| COc1cc(C(=O)Nc2ccc3ccccc3c2)cc(OC)c1OC | inactive |

More results follow:

| Compound | Potency |
| --- | --- |
| O=C(/C=C/c1ccco1)NC(=S)Nc1ccc(O)c(-c2nc3ccccc3s2)c1 | inconclusive: 16.4 µM [activator, single point] |
| CC12CCC(=O)N1C(C(=O)NNC(=O)c1ccc(Br)cc1)CS2 (stereo unspecified) | inactive |
| COc1ccc(-c2csc(-c3ccc(O)cc3)n2)cc1 | inconclusive: 23.1 µM [activator, partial curve] |
| COc1ccc(N2C(=O)C3C(C2=O)C2C=CC3C23CC3)c(OC)c1 (stereo unspecified) | inconclusive: 20.6 µM [activator, single point] |
| C/C=C/CSc1nc2c(c(=O)[nH]c(=O)n2C)n1C(C)C | inconclusive: 9.2 µM [activator, partial curve, poor fit] |
| O=C(c1ccccc1)c1c2c(cc3sc4ccccc4[n+]13)-c1cccc3cccc-2c13 | active: 18.4 µM |
| Cc1ccc(C2N(C)C(=O)c3ccccc3N2C)cc1 (stereo unspecified) | inactive |
| CCc1ccccc1OCC(=O)NCC1COc2ccccc2O1 (stereo unspecified) | inactive |
| CCOc1ccc(NC2C=CS(=O)(=O)C2)cc1 (stereo unspecified) | inconclusive: 6.51 µM [activator, single point] |
| Cc1ccc(OCC(=O)Nc2ccccc2N2CCOCC2)c(C)c1 | inconclusive: 18.4 µM [inhibitor, single point] |
| CCc1ccc(CNC(=O)Cn2nc(-c3ccc(C)cc3)ccc2=O)cc1 | inactive |
| CC(C)(C)C(=O)/C=C/Nc1ccccc1O | inactive |
| CCN1CCN(CCCNC(=O)C2CCN(c3nnc(-n4c(C)ccc4C)s3)CC2)CC1 | inconclusive: 10.3 µM [activator, partial curve, poor fit] |
| CNC(=S)N/N=C(\C)c1cccc(C(F)(F)F)c1 | inactive |
| COc1ccc(NC(=O)C2CCN(S(=O)(=O)c3c(C)noc3C)CC2)cc1Cl | inactive |
| Cc1cccc(S(=O)(=O)c2c(N)n(/N=C/c3cccnc3)c3nc4ccccc4nc23)c1 | inconclusive: 4.61 µM [inhibitor, full curve] |
| CCn1c(SCc2ccc(C#N)cc2)nnc1-c1ccc(S(=O)(=O)N2CCCCC2)cc1 | active: 10.3 µM |
| Cc1ccn(C)c(=N)c1 | inactive |
| CCOc1ccc(N(CC(=O)Nc2cccc(Cl)c2)S(=O)(=O)c2c(C)noc2C)cc1 | inconclusive: 18.4 µM [inhibitor, single point] |
| Cc1ccc2oc(=O)c3cc(C(=O)NCCCN4CCCCCC4)sc3c2c1 | inconclusive: 20.6 µM [activator, partial curve, poor fit] |
| CCC(=O)N1CCc2cc(Br)cc(S(=O)(=O)N3CCCCCC3)c21 | inactive |
| NC(=O)COc1ccc2cc(-c3ccccc3)c(=O)oc2c1 | inconclusive: 20.6 µM [activator, partial curve] |
| Cc1ccccc1Cn1nnc(-c2ccc(F)cc2)n1 | inconclusive: 29.1 µM [activator, single point] |
| COc1ccc2oc(C(=O)NNC(=O)c3ccc(F)cc3)c(C)c2c1 | inconclusive: 29.1 µM [activator, partial curve, poor fit] |

| Compound | Potency |
| --- | --- |
| COc1ccc2[nH]c(=O)c(CN(C(=O)c3cccnc3)c3ccc(C)c(C)c3)cc2c1 | inconclusive: 29.1 µM [inhibitor, single point] |
| CC(OC(=O)CC1CC2CCC1C2)C(=O)Nc1cccc(S(=O)(=O)N2CCOCC2)c1 (stereo unspecified) | inactive |
| Cc1noc(C)c1CCC(=O)NC1CCCN(Cc2ccc(CC(C)C)cc2)C1 (stereo unspecified) | inconclusive: 7.3 µM [inhibitor, partial curve] |
| Cc1cccc(NC(=O)CCSc2ccccn2)c1 | inconclusive: 20.6 µM [activator, partial curve] |
| COc1ccccc1C1CC(=O)NC(C)=C1C(=O)OC(C)C (stereo unspecified) | inactive |
| Cc1nc(SCc2nc3cc(Cl)c(F)cc3[nH]2)c2oc3ccccc3c2n1 | inconclusive: 25.9 µM [inhibitor, single point] |
| CCOC(=O)c1cnc2c(ccc3ccccc32)c1NCCO | inconclusive: 29.1 µM [inhibitor, single point] |
| COc1cccc(Nc2nc3ccccc3nc2-n2nc(C)cc2C)c1 | inactive |
| CC(=O)Nc1ccc(S(=O)(=O)NCCc2ccc(S(N)(=O)=O)cc2)cc1 | inconclusive: 6.51 µM [inhibitor, single point] |
| Cc1cc(C=C(C#N)C#N)c(C)n1-c1ccccc1 | inconclusive: 25.9 µM [activator, single point] |
| C=C1C(=O)O[C@H]2[C@H]1[C@@H](O)CC(=C)[C@@H]1CC(=O)[C@@H](C)[C@H]21 | inactive |
| O=C(O)c1ccc(N/N=C/c2cn(-c3ccccc3)nc2-c2cccs2)cc1 | inconclusive: 0.651 µM [activator, full curve] |
| CCOC(=O)[C@@H]1[C@H]2COc3ccc(Br)cc3[C@@H]2N2C(=O)N(c3ccc(Br)cc3)C(=O)[C@]12C | inactive |
| O=C(c1cccc(S(=O)(=O)N2CCCc3ccccc32)c1)N1CCN(c2ccccc2)CC1 | inconclusive: 29.1 µM [inhibitor, single point] |
| CNC[C@@H]1Oc2ccc(NC(=O)Nc3ccccc3)cc2C(=O)N([C@@H](C)CO)C[C@H]1C | inconclusive: 23.1 µM [activator, partial curve, poor fit] |
| Cc1ccc(S(=O)(=O)NCc2nc3ccccc3c(=O)n2N)cc1 | inconclusive: 16.4 µM [inhibitor, single point] |
| Cc1cccn2c(=O)c(/C=C(\C#N)C(=O)NC3CCS(=O)(=O)C3)c(N3CC(C)OC(C)C3)nc12 (stereo unspecified) | inactive |
| C=CCSc1n[nH]c(-c2ccc(OCCCC)cc2)n1 | inconclusive: 3.66 µM [activator, single point] |
| CC(C)N1C(=O)S/C(=C/c2cccnc2)C1=O | inconclusive: 25.9 µM [activator, partial curve, poor fit] |
| O=c1cc(NCCCO)c2ccccc2o1 | inactive |
| COc1ccc(O)c(C2=Nc3ccccc3N=C(c3ccccc3)C2)c1 | inconclusive: 14.6 µM [inhibitor, partial curve] |
| CCCOc1ncnc2c1[nH]c1ccccc12 | inconclusive: 29.1 µM [activator, single point] |
| Cc1nnc(SCc2nnc(-c3cccs3)o2)s1 | inconclusive: 23.1 µM [activator, single point] |
